Tested on: HepG2 cells
Experiment: Gene expression analyses with DNA microarrays (Agilent), Reactome and T-profiler
Type: cell-based, human
Details: 3 μM BaP
Protocol: Labelling and hybridisation of RNA samples was done according to Agilent's manual for microarrays (Agilent Technologies, Breda, The Netherlands). […] For each biological experiment, two hybridizations per time point were conducted, with swapped Cy3 and Cy5 dyes.
The images (10 micron resolution; 16 bit tiff) were processed with ImaGene 6.0 to quantify spot signals (BioDiscovery Inc., Los Angeles, USA). Irregular spots were automatically flagged and excluded from data analysis. Data from ImaGene were further processed with GeneSight 4.1.6 (BioDiscovery Inc., Los Angeles, USA). For each spot, background was subtracted and flagged spots as well as spots with a net expression level below 20 in both channels were omitted. Data were log base 2 transformed and LOWESS normalized. If for a gene more probes were on the array, replicates were averaged while omitting outliers (>2 standard deviations). Raw data are available at ArrayExpress (accession numbers E-TOXM-22 and E-TOXM-23, for the first and second experiment respectively) (www.ebi.ac.uk/arrayexpress/). […]
T-profiler is used for functional annotation of pathways and processes in the complete data set of genes without pre-selecting modulated genes. […] Per experiment and time point t-values were determined for each gene set. […]

c1ccc2c(c1)cc1ccc3cccc4ccc2c1c34 [BaP, benzo[a]pyrene]
number of differentially expressed genes (3 to 60 h, 4 replicates combined with ANOVA): 2808 genes | number of gene sets identified as being modulated (T-profiler) (analysis per time point): 155 gene sets
